Laboratory results: ChEMBL document CHEMBL1157296, “Cytotoxic and antimicrobial benzophenones from the leaves of Tovomita longifolia” (2006)
Values after ≈ are worked out from the molar mass of the structure shown.

Test system: Candida albicans
Experiment: Antimicrobial activity against Candida albicans ATCC 10231
Format: functional

`C[C@@H]1[C@H](O)[C@@H](C)/C=C/C=C/C=C/C=C/C=C/C=C/C=C/[C@H](O[C@@H]2O[C@H](C)[C@@H](O)[C@H](N)[C@@H]2O)C[C@@H]2O[C@](O)(C[C@@H](O)C[C@@H](O)[C@H](O)CC[C@@H](O)C[C@@H](O)CC(=O)O[C@H]1C)C[C@H](O)[C@H]2C(=O)O` [AMPHOTERICIN B] gave an MIC of 0.39 µg/mL (≈ 0.422 µM).
